Experimental data from patent US5084142A, “Separation of tertiary butyl alcohol from water by azeotropic or extractive distillation” (priority 1991, dated 1992).
Some compounds share one wording; it may come from a single statement.

assay: Extractive agents evaluated in vapor-liquid equilibrium still (separating water from t-butanol); assay type: physicochemical; details: effective extractive distillation agents, in words

**Q.** Which “overhead product brought out by extractive agent” value (“overhead product brought out” for short) does the source give for CCCC(=O)CC [3-Hexanone] here?
**A.** bring out the water

**Q.** For CCCCC(=O)CC [3-Heptanone], which “overhead product brought out” value is on record?
**A.** bring out the water

**Q.** For CCCCOC(C)=O [n-Butyl acetate], which “overhead product brought out” value is on record?
**A.** bring out the water

**Q.** Which “overhead product brought out” value does the source give for CC(=O)OCCOC(C)=O [Ethylene glycol diacetate] here?
**A.** bring out the water

**Q.** With CC(CO)CO [2-Methyl-1,3-propanediol] as the molecule, how does the “overhead product brought out” value read?
**A.** bring out the t-butyl alcohol

**Q.** With COc1ccccc1 [Anisole] as the molecule, how does the “overhead product brought out” value read?
**A.** bring out the water

**Q.** Which “overhead product brought out” value does the source give for CN(C)C=O [Dimethyl formamide] here?
**A.** bring out the t-butyl alcohol

**Q.** Which “overhead product brought out” value does the source give for 2-Hydroxyacetophenone here?
**A.** bring out the water

**Q.** With C[S+](C)[O-] [Dimethyl sulfoxide] as the molecule, how does the “overhead product brought out” value read?
**A.** bring out the t-butyl alcohol

**Q.** With COC(=O)c1ccccc1C(=O)OC [Dimethyl phthalate] as the molecule, how does the “overhead product brought out” value read?
**A.** bring out the t-butyl alcohol

**Q.** With CCCCOCCO [Ethylene glycol butyl ether] as the molecule, how does the “overhead product brought out” value read?
**A.** bring out the water

**Q.** With CCCCCC(=O)OC [Methyl caproate] as the molecule, how does the “overhead product brought out” value read?
**A.** bring out the water

**Q.** Which “overhead product brought out” value does the source give for CCCCCC(=O)CC [3-Octanone] here?
**A.** bring out the water

**Q.** With CC(O)c1ccccc1 (stereo not drawn) [alpha-Methyl benzyl alcohol] as the molecule, how does the “overhead product brought out” value read?
**A.** bring out the water

**Q.** Which “overhead product brought out” value does the source give for COC(=O)CCCCC(=O)OC [Dimethyl adipate] here?
**A.** bring out the t-butyl alcohol

**Q.** Which “overhead product brought out” value does the source give for CC(C)CC(=O)CC(C)C [Diisobutyl ketone] here?
**A.** bring out the water

**Q.** Which “overhead product brought out” value does the source give for CC(C)CC(O)CC(C)C [Diisobutyl carbinol] here?
**A.** bring out the water

**Q.** For CC(C)CCCCCCCO [Isodecanol], which “overhead product brought out” value is on record?
**A.** bring out the water

**Q.** Which “overhead product brought out” value does the source give for CCCC(=O)OCC [Ethyl butyrate] here?
**A.** bring out the water

**Q.** Which “overhead product brought out” value does the source give for CCCCCCO [Hexyl alcohol] here?
**A.** bring out the water

**Q.** With OCCOc1ccccc1 [Ethylene glycol phenyl ether] as the molecule, how does the “overhead product brought out” value read?
**A.** bring out the water

**Q.** For CCCCC(=O)OCC [Ethyl n-valerate], which “overhead product brought out” value is on record?
**A.** bring out the water

**Q.** For CC(O)CCO (stereo not shown) [1,3-Butanediol], which “overhead product brought out” value is on record?
**A.** bring out the t-butyl alcohol

**Q.** For CC(=O)CCC(C)C [Methyl isoamyl ketone], which “overhead product brought out” value is on record?
**A.** bring out the water

**Q.** With Dipropylene glycol as the molecule, how does the “overhead product brought out” value read?
**A.** bring out the t-butyl alcohol

**Q.** With O=C(OCc1ccccc1)c1ccccc1 [Benzyl benzoate] as the molecule, how does the “overhead product brought out” value read?
**A.** bring out the water

**Q.** For CC(=O)C=C(C)C [Mesityl oxide], which “overhead product brought out” value is on record?
**A.** bring out the water

**Q.** With CCCCCCC(C)O (stereo not shown) [2-Octanol] as the molecule, how does the “overhead product brought out” value read?
**A.** bring out the water

**Q.** For CCC(O)CO (stereo not shown) [1,2-Butanediol], which “overhead product brought out” value is on record?
**A.** bring out the water

**Q.** Which “overhead product brought out” value does the source give for OC1CCCCCCCCCCC1 [Cyclododecanol] here?
**A.** bring out the water

**Q.** For OCCOCCO [Diethylene glycol], which “overhead product brought out” value is on record?
**A.** bring out the t-butyl alcohol

**Q.** With CCOC(=O)c1ccccc1O [Ethyl salicylate] as the molecule, how does the “overhead product brought out” value read?
**A.** bring out the water

**Q.** Which “overhead product brought out” value does the source give for OCCCCO [1,4-Butanediol] here?
**A.** bring out the t-butyl alcohol

**Q.** With CCCC(=O)OCC(C)C [Isobutyl butyrate] as the molecule, how does the “overhead product brought out” value read?
**A.** bring out the water

**Q.** With CC1=CC(=O)CC(C)(C)C1 [Isophorone] as the molecule, how does the “overhead product brought out” value read?
**A.** bring out the water

**Q.** Which “overhead product brought out” value does the source give for CCOCCOCCOCC [Diethylene glycol diethyl ether] here?
**A.** bring out the water

**Q.** Which “overhead product brought out” value does the source give for OCCOCCOCCO [Triethylene glycol] here?
**A.** bring out the t-butyl alcohol
